# Screening data, single-dose tests

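Assay of Toxoplasma gondii numbers, read through their beta-galactosidase reporter with a colour substrate. Compounds at 50 µM. Higher reads as fewer parasites (inferred from which compounds were picked for retests). Of about 18,000 compounds tested this way, about 170 (0.94%) reached 50% or more in at least one test.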

Values are the deposited “Percent Effect”, in %.
The controls that fix the scale are not given in the record; negative values are as filed.
This is an unselected part of the compounds tested.

compound,effect
NC1CCCN(c2cc(N3CCCC3)ncn2)C1 (stereo not drawn),-12.1
Cc1cc(NC(=O)c2ccc(Cl)cn2)nc(=O)[nH]1,-2.616
CCN1CCC(c2nc(C3CCOC3)no2)CC1 (stereo not drawn),0.08227
CN(C)S(=O)(=O)c1ccc(CN2CCC(C(N)=O)C2)o1 (stereo not drawn),-2.2
CC(=O)NCCNc1nc2c(s1)c(C)nn2C,-1.028
NCC(=O)N1CCCC(CCc2ccc(F)cc2)C1 (stereo not drawn),31.97
OCC1(NCc2ccc(Br)o2)CCOC1 (stereo not drawn),-3.763
N#Cc1cccnc1NCc1ccc(CO)c(F)c1,-21.35
CC1=NN(C(=O)CC#N)C(O)(c2ccccc2)C1 (stereo not drawn),15.42
Cc1nnc(CN2CCCC2c2ccccn2)s1 (stereo not drawn),6.164
CC(C)CCNC(=O)Nc1c[nH]c(=O)[nH]c1=O,-6.762
CC(CN1CCOCC1)C(=O)NCCn1cc(Cl)cn1 (stereo not drawn),-19.08
COc1ccc(C(=O)CCC(=O)N(C)C)c(Cl)c1,-3.134
CC(C)OCCn1cnc(C#N)c1C#N,-0.08039
CC(C)CC(O)C1CCN(Cc2c[nH]cn2)CC1 (stereo not drawn),-8.474
Cc1scc(C(=O)N2CCCN(C)CC2)c1C,-6.053
NC(=O)CC1(N2CCOCC2)CCCC1,-2.086
O=S1(=O)CCC(NCc2csc(-c3ccccn3)n2)C1 (stereo not drawn),-2.489
O=C(Nc1cccnc1)OCC(F)(F)F,-5.783
COc1ccc(C)c(NC(=O)CNC(=O)C2CC2)c1,4.671
CC1(C)OCCC1CN (stereo not drawn),-11.27
CNC(=O)[C@@H]1CCCN1,-5.087
Cc1nnc(NC(=O)N(CCO)C2CC2)s1,-4.304
CCN(CC)CCOC1CNC1,9.509
OCCOCCNCC(O)COCc1ccccc1Cl (stereo not drawn),5.936
c1c[nH]c(C2CCNC2)n1 (stereo not drawn),-6.288
CNC(=O)Cc1nc(-c2ccc3c(c2)COC3)cs1,-3.518
Brc1ccnc(Nc2ccccn2)c1,-5.464
N#CCCN(Cc1ccccc1)C(=O)c1ccco1,7.927
NCC1(O)CCc2ccccc21 (stereo not drawn),-5.965
Cc1ccccc1NC(=O)CC1NCCNC1=O (stereo not drawn),-3.773
CCCn1ccnc1CNC(=O)[C@H]1CCC[C@@H](O)C1,-3.185
CC(CS(C)(=O)=O)N(C)C(=O)COc1ccc(Br)cc1 (stereo not drawn),-14.03
CNCCN1CCN(C(=O)OC(C)(C)C)CC1,5.859
CC(C#N)Sc1nnc(-c2cccnc2)n1C (stereo not drawn),-13.06
Cn1cncc1CCNC(=O)CCc1ccsc1,-0.4026
CCCNC(=O)C1CCCN(C(=O)N(C)C)C1 (stereo not drawn),-1.336
Cc1nccc(O)c1OCC(=O)Nc1ccncc1,34.28
CC(C)c1ncc(C(=O)Nc2ccc(C(N)=O)nc2)s1,-5.275
CCc1ccsc1C(=O)NCC1CN(C)CCO1 (stereo not drawn),7.092
COCCN(C)Cc1ccnc(N)c1,-7.11
OC[C@@H]1CNC[C@H]1c1nc(-c2ccncc2)no1,4.849
CC1(C)CNC(=O)c2nc(CC3(O)CCCC3)[nH]c2C1,-11.27
CCN(C(=O)c1cccnc1SC)[C@H]1COC[C@@H]1O,-1.146
C=Cc1ccc(CCN)cc1,21.52
NC1(c2nc(-c3ccccc3)c[nH]2)CCCC1,10.17
COc1ccc(C(=O)CCN(C)C)cc1,-12.52
O=C(CCOc1ccccc1)NCC1COCCO1 (stereo not drawn),-3.694
CCc1nnc(C2CNCCO2)o1 (stereo not drawn),7.951
CC(C)c1nc(C(=O)NCCN2CCCOC2=O)cs1,1.775
Cc1nc(CN2CCN(C(=O)c3cnc[nH]3)CC2)cs1,1.621
CNC(=O)c1cnn(C2CCCCC2)c1,-4.045
CCC(=O)Nc1ccc(C)c(-n2cnnn2)c1,-9.398
CCn1nc(C)c(C(=O)N2CC[C@@H](N)[C@H](O)C2)c1C,-10.37
Cc1cc(NC(=O)CN2CCCCC2C)n(C)n1 (stereo not drawn),4.709
CCNC(=O)CN(CC)CC(=O)Nc1cc(C)no1,-13.32
N#Cc1cccnc1NCC1COc2ccccc2O1 (stereo not drawn),-5.408
CCOc1ccc(NC(=O)CNC2CC2)cc1,-3.438
NCCCNC1=NS(=O)(=O)c2ccccc21,-11.62
CNC1CCN(C(C)c2ccccn2)CC1 (stereo not drawn),-12.32
Cc1cc(N2CCC3(CC2)OCCO3)n2ncnc2n1,-34.81
N#Cc1cc(F)ccc1NC(=O)N1CCC(O)CC1,-2.025
N[C@@H]1CC[C@@H]1NC(=O)Cc1c[nH]c2ccccc12,-6.989
O=C(Nc1nnc(-c2ccccn2)s1)N1CC[C@@H](O)C1,-3.387
CNCCCNC(=O)c1ccc(C(C)=O)cc1,-12.96
Nc1n[nH]c(SCc2ccc3c(c2)OCCO3)n1,48.58
c1coc(C2CCNCC2)n1,8.95
CN(C)[C@H]1CN(Cc2ccc(Cl)cc2)C[C@@H]1O,-9.763
Cc1ccsc1C(=O)Nc1ccc2c(c1)NC(=O)CO2,11.39
NC(=O)NC(=O)CCS(=O)(=O)c1cc(F)ccc1F,-6.487
CC(=O)NCCCOCC1CCCO1 (stereo not drawn),8.17
CC(C)NC(=O)N(Cc1cccnc1)C(C)C,11.83
COc1c(F)cccc1C(=O)NC(C)c1n[nH]c(C)n1 (stereo not drawn),14.04
O=C(Nc1cccc(Cl)c1Cl)C1CCS(=O)(=O)C1 (stereo not drawn),-5.386

The first 6 entries again:

{"compound": "NC1CCCN(c2cc(N3CCCC3)ncn2)C1", "stereo": "stereo not drawn", "effect": -12.1}
{"compound": "Cc1cc(NC(=O)c2ccc(Cl)cn2)nc(=O)[nH]1", "effect": -2.616}
{"compound": "CCN1CCC(c2nc(C3CCOC3)no2)CC1", "stereo": "stereo not drawn", "effect": 0.08227}
{"compound": "CN(C)S(=O)(=O)c1ccc(CN2CCC(C(N)=O)C2)o1", "stereo": "stereo not drawn", "effect": -2.2}
{"compound": "CC(=O)NCCNc1nc2c(s1)c(C)nn2C", "effect": -1.028}
{"compound": "NCC(=O)N1CCCC(CCc2ccc(F)cc2)C1", "stereo": "stereo not drawn", "effect": 31.97}

Data taken from ChEMBL document CHEMBL3988442, “University of Dundee, Small-Polar-MMV Screening Library” (2021).